The target of experiment [1] is T1, pBad (Bad phosphorylated at Ser-136) (human (endogenous in SCC4)), Q92934.
T1 chain: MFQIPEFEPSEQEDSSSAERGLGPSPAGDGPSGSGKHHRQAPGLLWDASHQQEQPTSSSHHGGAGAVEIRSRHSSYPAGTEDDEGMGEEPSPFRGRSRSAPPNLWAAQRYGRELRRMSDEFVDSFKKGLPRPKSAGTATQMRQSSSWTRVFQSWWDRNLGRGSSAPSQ
Description: co-IP; whole cell lysates of SCC4 cells treated with ST (20 µg/ml) or nicotine (10 µM) for different time intervals; 14-3-3ζ immunoprecipitated and pBad blotted, and in reverse pBad immunoprecipitated and 14-3-3ζ blotted; Protein A-sepharose beads. The conditions noted are these: remark: other sources report otherwise.

The target of experiment [2] is T2, 14-3-3ζ (human (endogenous in SCC4)), P63104.
T2 chain: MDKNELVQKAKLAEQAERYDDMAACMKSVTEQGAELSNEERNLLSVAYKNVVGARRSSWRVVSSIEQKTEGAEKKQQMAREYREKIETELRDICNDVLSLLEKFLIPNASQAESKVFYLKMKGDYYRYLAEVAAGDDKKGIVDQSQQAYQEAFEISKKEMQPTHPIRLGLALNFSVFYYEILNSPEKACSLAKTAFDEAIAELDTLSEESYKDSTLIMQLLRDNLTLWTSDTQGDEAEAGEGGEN
The experiment is described as above. The following applies: remark: other sources report otherwise.

No constants are given. Whether binding was seen depends on the method and setting. In cells and extracts the contact can be indirect. Some results given as binding are weak or reduced against the parent protein; the word gives no strength.

B1: 14-3-3ζ, P63104 1-245 (protein)
chain: MDKNELVQKAKLAEQAERYDDMAACMKSVTEQGAELSNEERNLLSVAYKNVVGARRSSWRVVSSIEQKTEGAEKKQQMAREYREKIETELRDICNDVLSLLEKFLIPNASQAESKVFYLKMKGDYYRYLAEVAAGDDKKGIVDQSQQAYQEAFEISKKEMQPTHPIRLGLALNFSVFYYEILNSPEKACSLAKTAFDEAIAELDTLSEESYKDSTLIMQLLRDNLTLWTSDTQGDEAEAGEGGEN
modifications: here or on the partner: phosphoserine at 136 (Ser-136 as printed)
For the molecule B1, the binding entry in experiment [1] is listed as “binds”.

B2: pBad (Bad phosphorylated at Ser-136), Q92934 1-168 (protein)
chain: MFQIPEFEPSEQEDSSSAERGLGPSPAGDGPSGSGKHHRQAPGLLWDASHQQEQPTSSSHHGGAGAVEIRSRHSSYPAGTEDDEGMGEEPSPFRGRSRSAPPNLWAAQRYGRELRRMSDEFVDSFKKGLPRPKSAGTATQMRQSSSWTRVFQSWWDRNLGRGSSAPSQ
modifications: here or on the partner: phosphoserine at 136 (Ser-136 as printed)
B2: in experiment [2], the binding result is listed as “binds”.

Source of the values: article PMC3044714.
